Measured values taken from publication PMC9037752 (Frontiers in Nutrition, 2022).

Test: peptide made by a vendor
Settings: whole synthesis, HPLC

FPQYLQYPY
purity (crude or final not stated): 98%

Plain letter strings leave the end groups untold.
